Results reported in patent US4780467A, “Esters of N-alkyl-nortropines and their quaternary derivatives having anti-bronchospastic activity, and pharmaceutical compositions containing them” (Laboratori Guidotti Spa, priority 1986, dated 1988).
Read-outs that look alike come from different tables or passages of the source.

What was measured:
[1] = tested on: platelet aggregation (rabbit prp) from arachidonic acid; test: platelet aggregation (rabbit prp) from arachidonic acid; type: cell-based; details: Oryctolagus cuniculus
[2] = tested on: platelet aggregation (rabbit prp) from PAF acether; test: platelet aggregation (rabbit prp) from PAF-acether; type: cell-based; details: Oryctolagus cuniculus
[3] = acute toxicity in the mouse; details: in vivo, approximate value

Structure (SMILES)	IC50 [1]	IC50 [2]	LD50 ([3]; ip, read-out: approximate value of LD50, i.p.)	LD50 ([3]; po, os, read-out: approximate value of LD50, os)
CN1[C@@H]2CC[C@H]1C[C@@H](OC(=O)C(CO)c1ccccc1)C2 (stereo partly shown) [Atropine sulphate, atropine sulphate, reference compound]	~1000 µM	> 1000 µM		
CC(C)[N+]1(C)[C@@H]2CC[C@H]1C[C@@H](OC(=O)C(CO)c1ccccc1)C2 (stereo partly shown) [ipratropium bromide, reference compound]			85 mg/kg	600 mg/kg
